{
  "source": "the supplement of paper PMC8728848",
  "binders": {"B1": {"name": "GS13814A-bth-462-26-462 (Bacteroides thetaiotaomicron) (protein)", "chain": "DDRDNLMVNDQIGLLHSTYTETEIFRGMDTPYQLFVIKSGKGKQETEVSISVDETVLQSYNTDNGTSIQLLPSDCYTILQPALRLNDSDYRKAFDIKWNADRLSDLLSTGKEYGLPIQMSVVQNFISADDERLKTIIVPTIKEPYLQMDVPGMSPVTDFMPTFGDLNERELFVKIRTNYSNDEDISFQIEVDPQLVIDYNTAHGTAYKMLPESSFTVDNKGVILTGMKETFIKIKYHKKGLIPEEGTYLFGDYVLPLRITSVSKYGISPDAASKLYTVKFQPDPIDKKGWSVIDFNNCCTQDGGWYLNMGWGVESLIDNNPGTQWLCRWDVKEPLPYYFVFDMGKEYTLFRFGFANPVAPAAHVWAGTSKAGYVEASIDNENWVKLKDWTSPKIGEPNVNMDVPATQARYIRFVITDTYPTYDGLRVSLGEVYAWGM"}},
  "assay_in_all_cases": "glycan array binding signal (z-score within array); higher = stronger binding",
  "settings_in_all_cases": "glycan notation: IUPAC condensed, linker removed",
  "key": {"[1]": {"biological_target": "Man(a1-3)[Man(a1-6)]Man(a1-6)[Man(a1-3)]Man", "procedure,_shortened": "(§1)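 Glycan array data were curated from 3228 arrays in the Consortium for Functional Glycomics database and kept only where the protein sequence was available. Glycan names were converted to IUPAC-condensed notation, and columns mapping to the same glycan were averaged. The binding signal is a within-array Z-score, averaged across arrays of the same protein sequence at different concentrations or buffers and across linkers. Negative Z-scores can be read as non-binding.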"}, "[2]": {"biological_target": "Man(a1-3)[Man(a1-6)]Man(a1-6)[Man(a1-3)]Man(b1-4)GlcNAc(b1-4)GlcNAc", "procedure,_shortened": "as §1"}, "[3]": {"biological_target": "Man(a1-3)[Man(a1-6)]Man(b1-4)GlcNAc(b1-4)GlcNAc", "procedure,_shortened": "as §1"}, "[4]": {"biological_target": "Man(a1-3)[Man(a1-6)]Man(b1-4)GlcNAc(b1-4)[Fuc(a1-6)]GlcNAc", "procedure,_shortened": "as §1"}, "Man(a1-6)Man": {"biological_target": "Man(a1-6)Man", "procedure,_shortened": "as §1"}, "Man(b1-4)GlcNAc": {"biological_target": "Man(b1-4)GlcNAc", "procedure,_shortened": "as §1"}, "MurNAc(b1-4)GlcNAc": {"biological_target": "MurNAc(b1-4)GlcNAc", "procedure,_shortened": "as §1"}, "Neu5Ac(a2-3)Gal": {"biological_target": "Neu5Ac(a2-3)Gal", "procedure,_shortened": "as §1"}, "[5]": {"biological_target": "Neu5Ac(a2-3)Gal(b1-3)GalNAc", "procedure,_shortened": "as §1"}, "[6]": {"biological_target": "Neu5Ac(a2-3)Gal(b1-3)GalNAc(b1-3)Gal(a1-4)Gal(b1-4)Glc", "procedure,_shortened": "as §1"}, "[7]": {"biological_target": "Neu5Ac(a2-3)Gal(b1-3)GalNAc(b1-4)[Neu5Ac(a2-3)]Gal(b1-4)Glc", "procedure,_shortened": "as §1"}, "[8]": {"biological_target": "Neu5Ac(a2-3)Gal(b1-3)GalNAc(b1-4)[Neu5Ac(a2-8)Neu5Ac(a2-3)]Gal(b1-4)Glc", "procedure,_shortened": "as §1"}, "[9]": {"biological_target": "Neu5Ac(a2-3)Gal(b1-3)GalNAc6S", "procedure,_shortened": "as §1"}, "[10]": {"biological_target": "Neu5Ac(a2-3)Gal(b1-3)GlcNAc", "procedure,_shortened": "as §1"}, "[11]": {"biological_target": "Neu5Ac(a2-3)Gal(b1-3)GlcNAc(b1-2)Man", "procedure,_shortened": "as §1"}, "[12]": {"biological_target": "Neu5Ac(a2-3)Gal(b1-3)GlcNAc(b1-2)Man(a1-3)[GlcNAc(b1-4)][Neu5Ac(a2-3)Gal(b1-3)GlcNAc(b1-2)Man(a1-6)]Man(b1-4)GlcNAc(b1-4)GlcNAc", "procedure,_shortened": "as §1"}, "[13]": {"biological_target": "Neu5Ac(a2-3)Gal(b1-3)GlcNAc(b1-2)Man(a1-3)[Neu5Ac(a2-3)Gal(b1-3)GlcNAc(b1-2)Man(a1-6)]Man(b1-4)GlcNAc(b1-4)GlcNAc", "procedure,_shortened": "as §1"}, "[14]": {"biological_target": "Neu5Ac(a2-3)Gal(b1-3)GlcNAc(b1-3)Gal(b1-3)GlcNAc", "procedure,_shortened": "as §1"}, "[15]": {"biological_target": "Neu5Ac(a2-3)Gal(b1-3)GlcNAc(b1-3)Gal(b1-4)GlcNAc", "procedure,_shortened": "as §1"}, "[16]": {"biological_target": "Neu5Ac(a2-3)Gal(b1-3)GlcNAc(b1-3)GalNAc", "procedure,_shortened": "as §1"}, "[17]": {"biological_target": "Neu5Ac(a2-3)Gal(b1-3)GlcNAc(b1-4)Gal(b1-4)Glc", "procedure,_shortened": "as §1"}, "[18]": {"biological_target": "Neu5Ac(a2-3)Gal(b1-3)GlcNAc(b1-6)GalNAc", "procedure,_shortened": "as §1"}, "[19]": {"biological_target": "Neu5Ac(a2-3)Gal(b1-3)GlcNAc6S", "procedure,_shortened": "as §1"}, "[20]": {"biological_target": "Neu5Ac(a2-3)Gal(b1-3)[Fuc(a1-4)]GlcNAc", "procedure,_shortened": "as §1"}, "[21]": {"biological_target": "Neu5Ac(a2-3)Gal(b1-3)[Fuc(a1-4)]GlcNAc(b1-3)Gal(b1-3)[Fuc(a1-4)]GlcNAc", "procedure,_shortened": "as §1"}, "[22]": {"biological_target": "Neu5Ac(a2-3)Gal(b1-3)[Fuc(a1-4)]GlcNAc(b1-3)Gal(b1-4)[Fuc(a1-3)]GlcNAc", "procedure,_shortened": "as §1"}, "[23]": {"biological_target": "Neu5Ac(a2-3)Gal(b1-3)[GlcNAc(b1-6)]GalNAc", "procedure,_shortened": "as §1"}, "[24]": {"biological_target": "Neu5Ac(a2-3)Gal(b1-3)[Neu5Ac(a2-6)]GalNAc", "procedure,_shortened": "as §1"}, "[25]": {"biological_target": "Neu5Ac(a2-3)Gal(b1-3)[Neu5Ac(a2-6)]GlcNAc(b1-3)[Fuc(a1-3)[Gal(b1-4)]GlcNAc(b1-6)]Gal(b1-4)Glc", "procedure,_shortened": "as §1"}, "[26]": {"biological_target": "Neu5Ac(a2-3)Gal(b1-3)]Neu5Ac(a2-3)Gal(b1-4)]GlcNAc", "procedure,_shortened": "as §1"}, "Neu5Ac(a2-3)Gal(b1-4)Glc": {"biological_target": "Neu5Ac(a2-3)Gal(b1-4)Glc", "procedure,_shortened": "as §1"}, "[27]": {"biological_target": "Neu5Ac(a2-3)Gal(b1-4)GlcNAc", "procedure,_shortened": "as §1"}, "[28]": {"biological_target": "Neu5Ac(a2-3)Gal(b1-4)GlcNAc(b1-2)Man", "procedure,_shortened": "as §1"}, "[29]": {"biological_target": "Neu5Ac(a2-3)Gal(b1-4)GlcNAc(b1-2)Man(a1-3)[GlcNAc(b1-4)][Neu5Ac(a2-3)Gal(b1-4)GlcNAc(b1-2)Man(a1-6)]Man(b1-4)GlcNAc(b1-4)GlcNAc", "procedure,_shortened": "as §1"}, "[30]": {"biological_target": "Neu5Ac(a2-3)Gal(b1-4)GlcNAc(b1-2)Man(a1-3)[Neu5Ac(a2-3)Gal(b1-4)GlcNAc(b1-2)Man(a1-6)]Man(b1-4)GlcNAc(b1-4)GlcNAc", "procedure,_shortened": "as §1"}, "[31]": {"biological_target": "Neu5Ac(a2-3)Gal(b1-4)GlcNAc(b1-2)Man(a1-3)[Neu5Ac(a2-3)Gal(b1-4)GlcNAc(b1-2)Man(a1-6)]Man(b1-4)GlcNAc(b1-4)[Fuc(a1-6)]GlcNAc", "procedure,_shortened": "as §1"}, "[32]": {"biological_target": "Neu5Ac(a2-3)Gal(b1-4)GlcNAc(b1-2)Man(a1-3)[Neu5Ac(a2-6)Gal(b1-4)GlcNAc(b1-2)Man(a1-6)]Man(b1-4)GlcNAc(b1-4)GlcNAc", "procedure,_shortened": "as §1"}, "[33]": {"biological_target": "Neu5Ac(a2-3)Gal(b1-4)GlcNAc(b1-2)[Neu5Ac(a2-3)Gal(b1-4)GlcNAc(b1-4)]Man(a1-3)[GlcNAc(b1-4)][Neu5Ac(a2-3)Gal(b1-4)GlcNAc(b1-2)[Neu5Ac(a2-3)Gal(b1-4)GlcNAc(b1-6)]Man(a1-6)]Man(b1-4)GlcNAc(b1-4)GlcNAc", "procedure,_shortened": "as §1"}},
  "note": "The other results are listed elsewhere or left out.",
  "data": [
    {"binder": "B1", "values": [
      {"measurement": "glycan array binding signal (z-score)", "setting": "[1]", "value": -1},
      {"measurement": "glycan array binding signal (z-score)", "setting": "[2]", "value": 1.06},
      {"measurement": "glycan array binding signal (z-score)", "setting": "[3]", "value": -0.492},
      {"measurement": "glycan array binding signal (z-score)", "setting": "[4]", "value": -0.273},
      {"measurement": "glycan array binding signal (z-score)", "setting": "Man(a1-6)Man", "value": 0.563},
      {"measurement": "glycan array binding signal (z-score)", "setting": "Man(b1-4)GlcNAc", "value": -0.193},
      {"measurement": "glycan array binding signal (z-score)", "setting": "MurNAc(b1-4)GlcNAc", "value": 0.025},
      {"measurement": "glycan array binding signal (z-score)", "setting": "Neu5Ac(a2-3)Gal", "value": -0.969},
      {"measurement": "glycan array binding signal (z-score)", "setting": "[5]", "value": 0.585},
      {"measurement": "glycan array binding signal (z-score)", "setting": "[6]", "value": 0.424},
      {"measurement": "glycan array binding signal (z-score)", "setting": "[7]", "value": -0.6},
      {"measurement": "glycan array binding signal (z-score)", "setting": "[8]", "value": -0.072},
      {"measurement": "glycan array binding signal (z-score)", "setting": "[9]", "value": -0.355},
      {"measurement": "glycan array binding signal (z-score)", "setting": "[10]", "value": 0.144},
      {"measurement": "glycan array binding signal (z-score)", "setting": "[11]", "value": -0.12},
      {"measurement": "glycan array binding signal (z-score)", "setting": "[12]", "value": -0.943},
      {"measurement": "glycan array binding signal (z-score)", "setting": "[13]", "value": -1.5},
      {"measurement": "glycan array binding signal (z-score)", "setting": "[14]", "value": -0.709},
      {"measurement": "glycan array binding signal (z-score)", "setting": "[15]", "value": -0.879},
      {"measurement": "glycan array binding signal (z-score)", "setting": "[16]", "value": -0.186},
      {"measurement": "glycan array binding signal (z-score)", "setting": "[17]", "value": -1.18},
      {"measurement": "glycan array binding signal (z-score)", "setting": "[18]", "value": 0.219},
      {"measurement": "glycan array binding signal (z-score)", "setting": "[19]", "value": -0.386},
      {"measurement": "glycan array binding signal (z-score)", "setting": "[20]", "value": -0.182},
      {"measurement": "glycan array binding signal (z-score)", "setting": "[21]", "value": -0.515},
      {"measurement": "glycan array binding signal (z-score)", "setting": "[22]", "value": 0.24},
      {"measurement": "glycan array binding signal (z-score)", "setting": "[23]", "value": -0.468},
      {"measurement": "glycan array binding signal (z-score)", "setting": "[24]", "value": -1.15},
      {"measurement": "glycan array binding signal (z-score)", "setting": "[25]", "value": -1},
      {"measurement": "glycan array binding signal (z-score)", "setting": "[26]", "value": 2.12},
      {"measurement": "glycan array binding signal (z-score)", "setting": "Neu5Ac(a2-3)Gal(b1-4)Glc", "value": 2.85},
      {"measurement": "glycan array binding signal (z-score)", "setting": "[27]", "value": 0.499},
      {"measurement": "glycan array binding signal (z-score)", "setting": "[28]", "value": -0.718},
      {"measurement": "glycan array binding signal (z-score)", "setting": "[29]", "value": -0.625},
      {"measurement": "glycan array binding signal (z-score)", "setting": "[30]", "value": -0.73},
      {"measurement": "glycan array binding signal (z-score)", "setting": "[31]", "value": -0.921},
      {"measurement": "glycan array binding signal (z-score)", "setting": "[32]", "value": 0.133},
      {"measurement": "glycan array binding signal (z-score)", "setting": "[33]", "value": 0.444}
    ]}
  ]
}
